Drawing on patent US5041436A, “1-arylsulphonyl-2-piperidinone derivatives, process and intermediates for the preparation thereof, their application as antispasmodics and compositions containing them” (Roussel Uclaf, priority 1989, dated 1991), this text covers IC50 for one molecule.

For this assay, the system named is isolated guinea pig ileum, contractions induced by histamine. The assay is described as follows: Antagonist action on contractions induced by histamine, isolated guinea pig ileum. The note with it: histamine 1×10^-5 M; contact time one minute; 37° C.; read-out: Antagonist to different agents (IC50), Histam. On the procedure: The interaction of the compounds with different receptors was assessed on isolated guinea pig ileum according to the following method.
Guinea pig ileum segments measuring 2.5-3 cm were washed and immediately suspended in a bath containing 10 ml of Tyrode's solution at 37° C. aerated with a mixture of oxygen (95%) and carbon dioxide (5%). After a stabilization period of at least 30 minutes, the contractions were recorded, maintaining the preparation under constant tension of 1 g using a gauge connected to a polygraph. The agonist action was assessed by leaving the compound in contact with the isolated tissue for a period necessary for expressing the maximal contraction; the preparation was then washed with Tyrode's solution. The next dose was added to the bath only after the preparation had returned to its base line. As a reference product, arecoline was employed. The antagonist action was assessed on contractions induced by acetyl choline (1×10^-6 M), histamine (1×10^-5 M) and barium chloride (2×10^-4 M). Atropine, diphenhydramine and papaverine were emplohyed as reference products. The contact time before adding the agonist was one minute.
For each compound, the dose-response curves are obtained with 4 to 6 different concentrations and 3 to 5 independent tests. The agonist activity is expressed by pD2 (negative logarithm of the dose which produces 50% of maximum effect). […]

Turning to `CN(C)CCOC(c1ccccc1)c1ccccc1` [Diphenydramine, diphenhydramine, reference compound], the half-maximal inhibitory concentration (IC50) (as a rule, the concentration needed to halve the response being measured) was 830 nM.
